Data as given in PubChem BioAssay AID504744 (Drosophila RNAi Screening Center, 2011)
In all, the deposit lists about 23,000 reagents; shown is an unselected part of those with a known target gene and a result. Over the whole deposit, 98 (0.43%) are marked active. 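Only hit calls are given; the phospho-dAkt signals, z-scores and hit direction were not deposited.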 A plus sign joins genes that one reagent is predicted to hit. Reagent sequences are not shown.

Test: 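Find genes whose loss alters insulin-driven dAkt phosphorylation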 (primary screen)
System: Drosophila Kc167 cells
Reagents: long dsRNA against Drosophila genes, 250 ng dsRNA per well of a 384-well plate
Time to read-out: 3 days of knock-down, then overnight serum-free starvation before stimulation
Treatment: bovine insulin at 387 nM for 10 minutes after 12 h without serum
Detection: 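In-cell antibody fluorescence for phospho-dAkt in each well over DNA-dye signal, with log2 residuals expressed as z-scores adjusted for cell count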
Rule for the call: 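Under insulin, a gene counts as a hit if the average z-score of two replicates lies above 2.5 or below -2.5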

Gene | amplicon | Call
Gas41 | DRSC03156 | inactive
rha | DRSC17044 | inactive
CG16756 | DRSC18115 | inactive
Nepl18 | DRSC14879 | inactive
CG8613 | DRSC07222 | inactive
CG11999 | DRSC12185 | inactive
CG4586 | DRSC18373 | inactive
Cpr76Bb | DRSC11061 | inactive
Cpr76Bb | DRSC22870 | inactive
CG10165 | DRSC02017 | inactive
chk | DRSC04994 | inactive
Nmd3 | DRSC18687 | inactive
Nmd3 | DRSC22834 | inactive
mRNA-cap | DRSC19789 | inactive
oc | DRSC18808 | inactive
CG7950 + Rpp14a | DRSC16353 | inactive
SERCA | DRSC04600 | inactive
CG34022 (retired record) | DRSC07949 | inactive
CG43693 | DRSC09086 | inactive
CG43693 | DRSC10625 | inactive
Oli | DRSC02866 | inactive
Rtca | DRSC18517 | inactive
CG42329 | DRSC00373 | inactive
CG42329 | DRSC00682 | inactive
CG1273 | DRSC08291 | inactive
p130CAS + Dic61B | DRSC08588 | inactive
CG5391 | DRSC15790 | inactive
CG4942 | DRSC10462 | inactive
CG13733 | DRSC10061 | inactive
Ubc4 | DRSC11312 | inactive
qjt | DRSC10060 | inactive
CG18609 | DRSC06775 | inactive
SoYb | DRSC02901 | inactive
CG7691 | DRSC16287 | inactive
Atg13 | DRSC16228 | inactive
aop | DRSC00801 | inactive
CG42337 | DRSC11686 | inactive
CG42337 | DRSC11687 | inactive
CG9948 | DRSC11104 | inactive
Mt2 | DRSC03374 | inactive
sca | DRSC07677 | inactive
CG14246 | DRSC14741 | inactive
Got2 | DRSC00643 | inactive
Not1 | DRSC06787 | inactive
Not1 | DRSC06794 | inactive
Trpgamma | DRSC03626 | inactive
l(1)G0020 | DRSC18198 | inactive
vg | DRSC07715 | inactive
vg | DRSC22669 | inactive
CG4461 | DRSC10423 | inactive
Acp53C14c | DRSC05626 | inactive
CG16986 | DRSC08502 | inactive
CG1943 | DRSC12576 | inactive
betaNACtes1 | DRSC19534 | inactive
Eig71Ei | DRSC11156 | inactive
CG12971 | DRSC11681 | inactive
Kap-alpha1 | DRSC11356 | inactive
bsk | DRSC03499 | inactive
Mkrn1 | DRSC11870 | inactive
CG4293 | DRSC18557 | inactive
GNBP3 | DRSC11170 | inactive
CG34112 | DRSC12235 | inactive
fkh | DRSC16949 | inactive
CG13771 | DRSC02277 | inactive
CG13643 | DRSC14641 | inactive
CG13643 | DRSC14642 | inactive
Elal | DRSC16662 | inactive
CG31802 | DRSC02459 | inactive
Osi16 | DRSC12135 | inactive
Osi16 | DRSC21323 | inactive
CG43707 | DRSC00280 | inactive
CG43707 | DRSC22869 | inactive
CG13121 (retired record) | DRSC02217 | inactive
CG8064 | DRSC16373 | inactive
CG13870 | DRSC06429 | inactive
CG10073 | DRSC05961 | inactive
CG31459 | DRSC13380 | inactive
CG9777 | DRSC20208 | inactive
enc | DRSC08716 | inactive
CG10991 (retired record) | DRSC12156 | inactive
CG32236 | DRSC08117 | inactive
CG10953 | DRSC06021 | inactive
TwdlG | DRSC12229 | inactive
CG12231 | DRSC19445 | inactive
CG12885 | DRSC14572 | inactive
CG15194 (retired record) | DRSC19642 | inactive
CG15194 (retired record) | DRSC19777 | inactive
Fmr1 | DRSC16674 | inactive
Smurf | DRSC07641 | inactive
CG17127 | DRSC02581 | inactive
jv | DRSC08831 | inactive
jv | DRSC08832 | inactive
Prosalpha3 | DRSC04644 | inactive
Nulp1 | DRSC09677 | inactive

Look-ups from above.
CG10991 (retired record) [DRSC12156], Call: inactive
Result for CG12971 [DRSC11681] in “Call”: inactive
For “Call”, Nulp1 [DRSC09677] is entered as inactive
Gas41 [DRSC03156], Call = inactive
Ubc4 [DRSC11312], Call → inactive
For “Call”, p130CAS + Dic61B [DRSC08588] is entered as inactive

Additional entries:
Gene | amplicon | Call
Camp | DRSC07004 | inactive
scb | DRSC05542 | inactive
scb | DRSC07678 | inactive
Pex7 | DRSC10651 | inactive
CG15464 (retired record) | DRSC18047 | inactive
CG15464 (retired record) | DRSC22086 | inactive
scramb2 | DRSC08543 | inactive
CG8299 | DRSC07139 | inactive
CG15258 | DRSC02478 | inactive
nAChRalpha2 | DRSC17009 | inactive
CG12128 | DRSC06104 | inactive
betaNACtes6 | DRSC22925 | inactive
CG11470 | DRSC14313 | inactive
Obp50b + Obp50c | DRSC21818 | inactive
CG14332 | DRSC14811 | inactive
melt | DRSC11367 | inactive
Wnt5 | DRSC20300 | inactive
Adck1 | DRSC04394 | inactive
inaF-B + inaF-D + inaF-C + 1 more | DRSC20342 | inactive
boss | DRSC16916 | inactive
CG17477 | DRSC15239 | inactive
CG1986 | DRSC18197 | inactive
CG17931 + CG42446 | DRSC15293 | inactive
CG6168 | DRSC10596 | inactive
bdg | DRSC07136 | inactive
peng | DRSC20583 | inactive
iotaTry | DRSC07634 | inactive
grau | DRSC04691 | inactive
CSN5 | DRSC16592 | inactive
CSN5 | DRSC22381 | inactive
CG5435 | DRSC02860 | inactive
Inx5 | DRSC20051 | inactive
CG4004 | DRSC19791 | inactive
CG4004 | DRSC19882 | inactive
CG2854 | DRSC18595 | inactive
GMF | DRSC01928 | inactive
Obp56g | DRSC06432 | inactive
CG32085 | DRSC10138 | inactive
CG32085 | DRSC10139 | inactive
CG32085 | DRSC10576 | inactive
Glut3 | DRSC16681 | inactive
CG42362 + CG42363 | DRSC04265 | inactive
CG10841 | DRSC14271 | inactive
Srg1 | DRSC14640 | inactive
crn | DRSC18184 | inactive
crn | DRSC18185 | inactive
crn | DRSC18755 | active
CG5455 | DRSC15805 | inactive
CG6066 | DRSC15959 | inactive
CG6066 | DRSC22228 | inactive
CG12519 | DRSC10311 | inactive
CG12519 | DRSC21549 | inactive
CR18166 | DRSC17260 | inactive
CR18166 | DRSC18147 | inactive
tld | DRSC17084 | inactive
Mos | DRSC07258 | inactive
CG13215 | DRSC06337 | inactive
CG10317 | DRSC14229 | inactive
CG34450 | DRSC17822 | inactive
CG32719 | DRSC17525 | inactive
not | DRSC11378 | inactive
beat-IIIc | DRSC02438 | inactive
beat-IIIc | DRSC02949 | inactive
